The assay has as its target T1, recombinant C-terminal domain of wild-type human μ4 (residues 160-453) (human) (UniProt O00189).
T1 sequence: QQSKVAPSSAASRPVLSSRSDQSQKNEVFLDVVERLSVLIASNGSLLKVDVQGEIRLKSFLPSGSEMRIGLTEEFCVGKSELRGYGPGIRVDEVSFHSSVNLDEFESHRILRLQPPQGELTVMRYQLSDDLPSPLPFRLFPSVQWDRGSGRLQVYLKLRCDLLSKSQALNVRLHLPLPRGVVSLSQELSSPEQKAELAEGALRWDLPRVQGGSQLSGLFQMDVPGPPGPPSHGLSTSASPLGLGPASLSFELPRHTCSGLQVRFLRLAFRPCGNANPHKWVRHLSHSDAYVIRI
Kind of assay: condition: peptide 2.5–5.0 mM into 250–500 µM μ4 construct; ITC; 28°C, 50 mM Tris-HCl pH 7.4, 150 mM NaCl; chamber 250–500 µM μ4 construct, peptide 2.5–5.0 mM in 16 injections; one-site model; both purified.

Results are given in words; binding and its absence hold for the method and conditions named.

Regarding SGYEVM [CD63 peptide SGYEVM], the binding result is listed as “no binding”.

With SDYQRL [TGN38 peptide SDYQRL], the binding entry is reported as “no binding”.

The record behind these values is paper PMC3912200, “Structural and Functional Characterization of Cargo-Binding Sites on the μ4-Subunit of Adaptor Protein Complex 4” (PLoS ONE, 2014).
